These are yes or no findings as the source states them, for the method shown. Some binding calls cover weakened binding; strength is not graded here.
Legend:
[1] = molecular target: recombinant human IL-2 with a 6×his tag (hIL-2-His) (human) (UniProt P60568); experiment: yeast surface display selection against human IL-2
[2] = molecular target: recombinant human IL-2 with a 6×his tag (hIL-2-His) (human) (UniProt P60568); experiment: yeast surface display, flow cytometry
[3] = molecular target: recombinant human IL-2 with a 6×his tag (hIL-2-His) (human) (UniProt P60568); experiment: yeast surface display flow cytometry, 0.1 nM hIL-2, MFI normalized to surface expression

Amino acid sequences for entries named in this document (tags omitted). A change or cut given only in a name is not applied to a line headed by its entry. Chains listed by the source or under a name are the forms on record and can include a tag or linker.
recombinant human IL-2 with a 6×his tag (hIL-2-His) (P60568, form named): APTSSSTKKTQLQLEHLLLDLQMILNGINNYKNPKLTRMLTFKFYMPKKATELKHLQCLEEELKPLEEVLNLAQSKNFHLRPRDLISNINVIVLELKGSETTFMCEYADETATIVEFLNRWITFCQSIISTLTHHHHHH

Binder | binding [1] | binding [2] | binding [3]
clone 2 (17.022), yeast-displayed scFv (scFv, V domains shown) VH: EIQLQQSGPELRRPGSSVKLSCKASGYNITDYLIHWVRHRPEHGLEWIGWIDPEDGETRYAQKFQSKATLTADTSSNAAYMQLSSLTPEDTATYFCARSLDSTWIYPFAYWGQGTLVTVSS VL: DIVMTQSPFSLAVSEGEMVTINCKSSQSLLRSGNQKNYLAWYQQKPGQSPKLLIYYASTGQSGVPDRFIGSGSGTDFTLTISDVQAEDLADYYCLQHYITPPTFGAGTKLELK | – | binds | binds
clone 6 (17.035), yeast-displayed scFv (scFv, V domains shown) VH: EIQLQQSGPELRRPGSSVKLSCKASGYNITDYLIHWVRHRPEHGLEWIGWIDPEDGETRYAQKFQSKATLTADTSSNAAYMQLSSLTPEDTATYFCARSLDSTYNYPFAYWGQGTLVTVSS VL: DIVMTQSPFSLAVSEGEMVTINCKSSQSLLRSGNQKNYLAWYQQKPGQSPKLLIYYASTGQSGVPDRFIGSGSGTDFTLTISDVQAEDLADYYCLQHWISPPTFGAGTKLELK | – | binds | binds
clone 4 (17.023), yeast-displayed scFv (scFv, V domains shown) VH: EIQLQQSGPELRRPGSSVKLSCKASGYNITDYLIHWVRHRPEHGLEWIGWIDPEDGETRYAQKFQSKATLTADTSSNAAYMQLSSLTPEDTATYFCARQLDSTYIYPFAYWGQGTLVTVSS VL: DIVMTQSPFSLAVSEGEMVTINCKSSQSLLRSGNQKNYLAWYQQKPGQSPKLLIYYASTGQSGVPDRFIGSGSGTDFTLTISDVQAEDLADYYCLQHYITPPTFGAGTKLELK | – | binds | binds

Second part, the binder after the results:

binding [1] | binding [2] | binding [3] | Binder
binds | – | – | clone C #7 (173R5C1-17.002) (scFv) scFv: EIQLQQSGPELRRPGSSVKLSCKASGYNITDYLIHWVRHRPEHGLEWIGWIDPEDGETRYAQKFQSKATLTADTSSNAAYMQLSSLTPEDTATYFCARSLDSTPIYPFAYWGQGTLVTVSSGGGGSGGGGSGGGGSDIVMTQSPFSLAVSEGEMVTINCKSSQSLLRSGNQKNYLAWYQQKPGQSPKLLIYYASTGQSGVPDRFIGSGSGTDFTLTISDVQAEDLADYYCLQHYITPPTFGAGTKLELK
– | binds | binds | clone 1 (17.021), yeast-displayed scFv (scFv, V domains shown) VH: EIQLQQSGPELRRPGSSVKLSCKASGYNITDNLIHWVRHRPEHGLEWIGWIDPEDGETRYAQKFQSKATLTADTSSNAAYMQLSSLTPEDTATYFCARSLDSTYIYPFAYWGQGTLVTVSS VL: DIVMTQSPFSLAVSEGEMVTINCKSSQSLLRSGNQKNYLAWYQQKPGQSPKLLIYYASTGQSGVPDRFIGSGSGTDFTLTISDVQAEDLADYYCLQHYQSPPTFGAGTKLELK
– | binds | binds | clone 5 (17.030), yeast-displayed scFv (scFv, V domains shown) VH: EIQLQQSGPELRRPGSSVKLSCKASGYNITDYLIHWVRHRPEHGLEWIGWIDPEDGETRYAQKFQSKATLTADTSSNAAYMQLSSLTPEDTATYFCARSLDSTYDYPFAYWGQGTLVTVSS VL: DIVMTQSPFSLAVSEGEMVTINCKSSQSLLRSGNQKNYLAWYQQKPGQSPKLLIYYASTGQSGVPDRFIGSGSGTDFTLTISDVQAEDLADYYCLQHYISPPTFGAGTKLELK

Source: patent US20240287169A1 (AULOS BIOSCIENCE, published 2024)
